PubChem BioAssay AID1159578, Peter MacCallum Cancer Centre | 2015

Test: 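siRNA pools altering how lymphatic endothelial cells close a scratch wound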 (primary screen)
System: human lymphatic endothelial cells
Reagent: siRNA pool against human genes, 40 nM
Time to read-out: 48 h after transfection
Measured: 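Cells stained with dye and imaged after a scratch; covered wound area and nuclei counted, duplicates averaged, migration set against mock wells and turned into a robust z-score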
Reading the numbers: migration robust z-score: higher = faster migration into the scratch; nuclei per well: higher = more cells in the well
Rule for the call: 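Pools averaging fewer than 3300 nuclei are never called; remaining pools count as changed when migration robust z lies outside -2 to 2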
Meaning of the calls: active = migration changed; inactive = no migration change, or too few cells
The deposit covers about 18,000 reagents; this is an unselected part. Over the whole deposit, about 1,030 (5.7%) are marked active. 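Inactive calls also include pools with fewer than 3300 nuclei, whose migration was not assessed.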 Raw values are not corrected between plates. A number with no mark means an inactive call. Not all columns of the deposit are shown.

The opening 3 entries, to show the layout:
FKBP3 (GeneID 2287): migration robust z-score = -0.7; migration class with cell-count check = migration z between -2 and 2; enough cells; nuclei per well, duplicate mean = 5249
KAT5 (GeneID 10524): migration robust z-score = -0.33; migration class with cell-count check = migration z between -2 and 2; enough cells; nuclei per well, duplicate mean = 6079
EPGN (GeneID 255324): migration robust z-score = 0.02; migration class with cell-count check = migration z between -2 and 2; enough cells; nuclei per well, duplicate mean = 6452

Results, repeating the preview:
FKBP3 (GeneID 2287): migration robust z-score = -0.7; migration class with cell-count check = migration z between -2 and 2; enough cells; nuclei per well, duplicate mean = 5249
KAT5 (GeneID 10524): migration robust z-score = -0.33; migration class with cell-count check = migration z between -2 and 2; enough cells; nuclei per well, duplicate mean = 6079
EPGN (GeneID 255324): migration robust z-score = 0.02; migration class with cell-count check = migration z between -2 and 2; enough cells; nuclei per well, duplicate mean = 6452
C2CD3 (GeneID 26005): migration robust z-score = -1.17; migration class with cell-count check = migration z between -2 and 2; enough cells; nuclei per well, duplicate mean = 6311
ZNF592 (GeneID 9640): migration robust z-score = -1.25; migration class with cell-count check = migration z between -2 and 2; enough cells; nuclei per well, duplicate mean = 4748
DOP1B (GeneID 9980): migration robust z-score = -0.4; migration class with cell-count check = migration z between -2 and 2; enough cells; nuclei per well, duplicate mean = 5988
SYT12 (GeneID 91683): migration robust z-score = 1; migration class with cell-count check = migration z between -2 and 2; enough cells; nuclei per well, duplicate mean = 5968
NANS (GeneID 54187): migration robust z-score = -1.6; migration class with cell-count check = migration z between -2 and 2; enough cells; nuclei per well, duplicate mean = 5204
CSDE1 (GeneID 7812): migration robust z-score = -0.72; migration class with cell-count check = migration z between -2 and 2; enough cells; nuclei per well, duplicate mean = 6005
DDIT4L (GeneID 115265): migration robust z-score = 1.25; migration class with cell-count check = migration z between -2 and 2; enough cells; nuclei per well, duplicate mean = 5726
ASB17 (GeneID 127247): migration robust z-score = 1.04; migration class with cell-count check = migration z between -2 and 2; enough cells; nuclei per well, duplicate mean = 5484
CLMB (GeneID 404550): migration robust z-score = -0.17; migration class with cell-count check = migration z between -2 and 2; enough cells; nuclei per well, duplicate mean = 5751
ARL14EP (GeneID 120534): migration robust z-score = -0.28; migration class with cell-count check = migration z between -2 and 2; enough cells; nuclei per well, duplicate mean = 6034
SLC25A29 (GeneID 123096): migration robust z-score = -1.95; migration class with cell-count check = migration z between -2 and 2; enough cells; nuclei per well, duplicate mean = 4652
PNLIPRP2 (GeneID 5408): migration robust z-score = -1.27; migration class with cell-count check = migration z between -2 and 2; enough cells; nuclei per well, duplicate mean = 6634
HSD3B1 (GeneID 3283): migration robust z-score = 0.55; migration class with cell-count check = migration z between -2 and 2; enough cells; nuclei per well, duplicate mean = 6022
UBE2E2 (GeneID 7325): migration robust z-score = 0.93; migration class with cell-count check = migration z between -2 and 2; enough cells; nuclei per well, duplicate mean = 5582
APRG1 (GeneID 339883): migration robust z-score = 1.55; migration class with cell-count check = migration z between -2 and 2; enough cells; nuclei per well, duplicate mean = 6048
RUFY1 (GeneID 80230): migration robust z-score = 0.28; migration class with cell-count check = migration z between -2 and 2; enough cells; nuclei per well, duplicate mean = 5824
SLC10A7 (GeneID 84068): migration robust z-score = 0.39; migration class with cell-count check = migration z between -2 and 2; enough cells; nuclei per well, duplicate mean = 4820
CGB1 (GeneID 114335): migration robust z-score = -0.96; migration class with cell-count check = migration z between -2 and 2; enough cells; nuclei per well, duplicate mean = 5898
CIDEA (GeneID 1149): migration robust z-score = 0.12; migration class with cell-count check = migration z between -2 and 2; enough cells; nuclei per well, duplicate mean = 4344
CABP4 (GeneID 57010): migration robust z-score = 1.91; migration class with cell-count check = migration z between -2 and 2; enough cells; nuclei per well, duplicate mean = 5604
CDHR3 (GeneID 222256): migration robust z-score = 1.13; migration class with cell-count check = migration z between -2 and 2; enough cells; nuclei per well, duplicate mean = 5406
OR10S1 (GeneID 219873): migration robust z-score = 1.48; migration class with cell-count check = migration z between -2 and 2; enough cells; nuclei per well, duplicate mean = 5534
KIF26A (GeneID 26153): migration robust z-score = -0.57; migration class with cell-count check = migration z between -2 and 2; enough cells; nuclei per well, duplicate mean = 6148
CGB8 (GeneID 94115): migration robust z-score = -0.11; migration class with cell-count check = migration z between -2 and 2; enough cells; nuclei per well, duplicate mean = 5752
